The structures appear in SMILES notation. The list shows a part of the results. Shown are side measurements of this screen, not its main read-out; they come without a call. The list favours compounds with an active or inconclusive main result. The note in brackets gives the kind of curve behind each potency; many fits are weak.

The nature of this assay: qHTS Assay for Lipid Storage Modulators in Drosophila S3 Cells.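 As to cell number change: cells counted by Cell Tracker Red CMTPX staining in the red channel.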 The settings on record: BODIPY lipid droplet fluorescence, 18-24 h; for cell number change: measured here: cell count max response, cells fed with added oleic acid. In outline:
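Laser-scanning cytometry quantifies lipid droplet accumulation (500–530 nm total intensity; droplet/cell object ratio) in oleic acid-fed (400 uM added) Drosophila S3 cells treated with a concentration series. 20 uM Triacsin C defined 100% inhibition.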
(qHTS replaces the single test concentration by a dilution series.)

[1] abbreviates: measured here: cell number channel AC50, cells fed with added oleic acid.
[2] abbreviates: measured here: lipid fluorescence (Fed channel) AC50, cells fed with added oleic acid.

Regarding `CCOC(=O)N1CC(=O)Nc2ccc(Br)cc2C1c1ccccc1` (configuration not stated), the cell number change worked out at 27.9%.

In general, AC50 refers to the midpoint of the concentration-response curve, whichever way the signal moves. A lower AC50 goes with greater potency. On to `Cc1ccccc1Cn1cnc2c([N+](=O)[O-])c(C)c(C)cc21`, for which the cell number change turned out to be 0.0776%. Besides, the AC50 under setting [1] was 6.51 µM [falling, single point]. The AC50 under setting [2] was 3.66 µM [rising, single point].

Regarding `O=C(c1cccnc1)N1CCC(c2nc3ccccc3[nH]2)CC1`, the cell number change was 0.94%. The AC50 under setting [1] was 0.00517 µM [rising, full curve, poor fit]. Besides, under setting [2], the AC50 was 0.00517 µM [rising, full curve, poor fit].

In the case of `Cc1cccc(N(Cc2ccccc2)C(=O)CSC(C)C(=O)Nc2cc(C)on2)c1` (configuration not stated), the cell number change is -99.2%. In addition, the half-maximal activity concentration (AC50) under setting [1] is 20.6 µM [falling, single point].

In the case of `COc1ccc(CC(NC(=O)c2ccccc2)C(=O)NCC(=O)O)cc1` (configuration not stated), the cell number change came out at 11.8%. Also, under setting [1], the half-maximal activity concentration (AC50) is 0.291 µM [rising, full curve, poor fit]. Under setting [2], the AC50 is 0.206 µM [rising, full curve, poor fit].

Take `CCCCOc1ccc(/C=C/C(=O)OCC(=O)NC2CCS(=O)(=O)C2)cc1OCC` (configuration not stated): the cell number change is -7%.

Take `CC(=O)c1ccc(N(C(=O)CNC(=O)c2ccco2)C(C(=O)NC2CCCC2)c2ccc(C)o2)cc1` (configuration not stated): the cell number change was -15.4%. In addition, the half-maximal activity concentration (AC50) under setting [2] was 3.66 µM [rising, partial curve, poor fit].

As to `Cc1occc1C(=O)O/N=C(\N)c1ccc(Cl)cc1`, the cell number change is 34.6%. In addition, under setting [1], the half-maximal activity concentration (AC50) was 20.6 µM [rising, single point].

Consider `CCCCNC(=O)CS(=O)Cc1nc(-c2cccc(C)c2)oc1C` (configuration not stated), for which the cell number change was -14.8%.

`CN(C(=O)c1ccc(NC(=O)Cc2ccc(NC(=O)C3CCN(C(=O)C4CCCCC4)CC3)cc2)cc1)C1CC1`: the cell number change was -3.81%. In addition, the half-maximal activity concentration (AC50) under setting [1] is 6.51 µM [falling, single point]. In addition, the AC50 under setting [2] was 6.51 µM [falling, single point].

In the case of `CCS(=O)(=O)N1CCC(C(=O)NCc2cccs2)CC1`, the cell number change was -197%. In addition, under setting [1], the half-maximal activity concentration (AC50) is 29.1 µM [falling, partial curve]. For the same compound, the AC50 under setting [2] was 0.291 µM [falling, full curve, poor fit].

Consider `COc1cc(OC)cc(OC(=O)c2cccc(S(=O)(=O)N3CCN(C)CC3)c2)c1`, for which the cell number change was -37%. Besides, the concentration at half-maximal activity (AC50) under setting [1] was 2.31 µM [falling, partial curve, poor fit].

Take `Cc1nc(NC(=O)c2cccc(Cl)c2)sc1-c1csc(Nc2cccc(Cl)c2)n1`: the cell number change stood at 15.5%.

`O=C(CN1CCC(O)(c2cccc(C(F)(F)F)c2)CC1)NCCc1ccccc1`: the cell number change came out at 37.5%. Further, under setting [2], the AC50 was 29.1 µM [falling, single point].

For the compound `O=C1[C@H]2CC3C=CC2(O3)[C@@H]2OCCCN12` (some centres not stated), the cell number change was found to be 6.01%. Also, the half-maximal activity concentration (AC50) under setting [2] is 0.326 µM [falling, full curve].

`CCC1=NN2C(=N)/C(=C\c3cccn3-c3ccc(C)c(C)c3)C(=O)N=C2S1`: under setting [2], the AC50 was 13 µM [falling, partial curve].

On to `CS(=O)(=O)N(CC(=O)N1CCN(Cc2ccccc2)CC1)c1ccccc1Br`, for which the cell number change was -0.806%. Moreover, under setting [2], the AC50 was 0.092 µM [rising, single point].

Consider `CC1(c2ccc(Cl)cc2)NC(=O)N(CC(=O)NCc2cccs2)C1=O` (configuration not stated), for which the cell number change is -10%. For the same compound, under setting [1], the AC50 was 0.291 µM [falling, full curve]. Further, under setting [2], the concentration at half-maximal activity (AC50) is 0.517 µM [falling, full curve, poor fit].

For the compound `CC(C)(C)C(=O)NC(CC(=O)O)c1ccccc1` (configuration not stated), the cell number change is -17%. Under setting [2], the AC50 is 0.116 µM [falling, full curve, poor fit].

With `Cc1ccc(O)c(C2=Nc3ccccc3N=C(c3ccco3)C2)c1`, the cell number change is -54.2%. For the same compound, the half-maximal activity concentration (AC50) under setting [1] is 32.6 µM [falling, partial curve, poor fit]. The AC50 under setting [2] is 11.6 µM [falling, partial curve].

`COc1ccc(C(=O)N(CC2CCCO2)C(C(=O)NC2CCCC2)c2ccc(Cl)cc2)cc1OC` (configuration not stated): the AC50 under setting [1] is 6.51 µM [rising, single point] and the concentration at half-maximal activity (AC50) under setting [2] was 6.51 µM [rising, single point].

In the case of `CCN(CC(=O)Nc1c(F)cccc1F)C(=O)C1CC1C` (configuration not stated), the cell number change was -75%. For the same compound, the AC50 under setting [1] was 16.4 µM [falling, single point]. In addition, under setting [2], the concentration at half-maximal activity (AC50) is 1.46 µM [rising, partial curve, poor fit].

In the case of `COc1cc(C(=S)N2CCOCC2)ccc1OC(=O)c1cc([N+](=O)[O-])c(C)c([N+](=O)[O-])c1`, the cell number change is -56%. The half-maximal activity concentration (AC50) under setting [1] was 18.4 µM [falling, single point].

As to `COc1ccc2[nH]cc(C3N4CC5(C)CN3CC(C)(C4)C5=O)c2c1` (configuration not stated), under setting [1], the AC50 is 0.116 µM [falling, full curve, poor fit].

Consider `CCCN(CCO)C1CCN(CCc2ccccc2)CC1`, for which the cell number change was -21%. Besides, the AC50 under setting [2] is 6.51 µM [rising, single point].

On to `O=C(CCl)N=c1sccn1Cc1ccc(Cl)cc1Cl`, for which the cell number change is -12.3%.

On to `CCOc1ccccc1C(=O)N1CCCCC1C` (configuration not stated), for which the cell number change was -5.61%. Besides, the AC50 under setting [2] is 23.1 µM [falling, partial curve, poor fit].

Turning to `CCOc1cccc2cc(C(=O)NCc3ccc(C)cc3)c(=N)oc12`, the cell number change is -18.3%. The concentration at half-maximal activity (AC50) under setting [2] was 8.91 µM [falling, partial curve, poor fit].

As to `Cc1cccc(OCC(=O)Nc2ccc(N3CCN(S(C)(=O)=O)CC3)cc2)c1C`, the cell number change was 7.66%.

Take `O=C(NCc1nc(-c2ccccc2)no1)c1cccs1`: the cell number change is -17.3%. Besides, the AC50 under setting [2] is 25.9 µM [rising, single point].

With `CC(CN1CCN(C)CC1)OC(=O)c1ccccc1Cl` (configuration not stated), the cell number change was -14.9%. Under setting [2], the half-maximal activity concentration (AC50) was 4.11 µM [falling, full curve, poor fit].

With `O=C1c2ccccc2NC2(CCCCC2)N1N=C1CCCCC1`, the cell number change was -2.73%. For the same compound, the AC50 under setting [2] was 29.1 µM [falling, single point].

With `Cn1cc(CCC(=O)N2CCCC(C(=O)c3ccc(C(C)(C)C)cc3)C2)cn1` (configuration not stated), the cell number change was -31%. For the same compound, the concentration at half-maximal activity (AC50) under setting [1] was 18.4 µM [falling, partial curve, poor fit].

With `Cn1c(CNC(=O)c2ccc(Cl)cc2)nnc1SCC(=O)NC1CCCC1`, the cell number change was -1.32%. Moreover, the AC50 under setting [2] is 5.62 µM [rising, single point].

In the case of `Cc1ccc(C(=O)NC(C)c2ccccc2)cc1Br` (configuration not stated), the cell number change is -2.66%.

As for `COc1ccc(C(C(=O)NC2CCCC2)N(C(=O)c2ccoc2C)c2cc(C)cc(C)c2)cc1` (configuration not stated), the cell number change was -2.96%. Moreover, the AC50 under setting [2] was 0.058 µM [falling, full curve, poor fit].

Take `O=C(c1cccc(C(F)(F)F)c1)N1CCC(O)(CS(=O)(=O)Cc2ccc(Cl)cc2)CC1`: the AC50 under setting [2] was 7.31 µM [falling, single point].

For `C=CCSc1nc2sc(C)c(C)c2c(=O)n1N`, the cell number change worked out at 37.7%. Besides, under setting [1], the concentration at half-maximal activity (AC50) is 11.6 µM [rising, partial curve]. Under setting [2], the concentration at half-maximal activity (AC50) was 14.6 µM [rising, partial curve].

On to `COc1ccc(CCN2C(=O)CC(Cc3ccccc3)C2=O)cc1OC` (configuration not stated), for which the cell number change turned out to be 36.2%. In addition, under setting [1], the concentration at half-maximal activity (AC50) is 7.31 µM [rising, partial curve, poor fit]. Under setting [2], the concentration at half-maximal activity (AC50) was 4.11 µM [rising, full curve, poor fit].

As to `CC(C)Oc1ccc(OCCCN2CCCCCC2)cc1`, the cell number change came out at 16.9%.

Consider `CC1=CC(=C2C(=O)c3ccccc3C2=O)C=C(C)N1Cc1ccco1`, for which the cell number change was -16.9%. Besides, the AC50 under setting [2] is 29.1 µM [rising, single point].

For `Cc1ccc(C)c(NS(=O)(=O)c2ccc3c(c2)Cc2cc(S(=O)(=O)Nc4cc(C)ccc4C)ccc2-3)c1`, the cell number change is 8.8%.

In the case of `CC1=CC(C)(C)N(S(=O)(=O)c2ccc(F)cc2)c2ccc(C)cc21`, the AC50 runs as follows: under setting [1], 6.51 µM [falling, single point]; under setting [2], 6.51 µM [falling, single point].

Consider `COc1cc(C(=O)N/N=C/c2sc(N3CCOCC3)nc2-c2ccccc2)cc(OC)c1OC`, for which the cell number change is -11.6%.

Consider `C=CCN(C(=O)CNC(=O)c1cccs1)C(C(=O)NC1CCCCC1)c1cccnc1` (configuration not stated), for which the AC50 under setting [1] is 4.11 µM [rising, partial curve, poor fit].

For the compound `O=C(N/N=C/c1ccccc1O)c1ccc2c(c1)OCO2`, the cell number change was found to be 0.118%. The AC50 under setting [2] is 29.1 µM [falling, single point].

As to `CC(=C/c1ccccc1)/C=N/Nc1nc(N2CCCCC2)nc(N2CCCCC2)n1`, the cell number change stood at 2.62%. Also, under setting [1], the AC50 was 2.06 µM [falling, single point].

In the case of `CC1CCN(c2ncnc3ccccc23)CC1`, the cell number change was -27.7%. Besides, the AC50 under setting [2] is 18.4 µM [falling, partial curve].

Take `CC(=O)Oc1ccc(Nc2ccccc2)cc1`: the cell number change is -8.2%. Also, the AC50 under setting [2] is 1.84 µM [falling, partial curve].

Turning to `Cc1cc(C)n(-c2ccc(Cl)c(C(=O)OCC(N)=O)n2)n1`, under setting [1], the concentration at half-maximal activity (AC50) was 0.92 µM [rising, partial curve].

With `CCSC1=C(C#N)C(c2cccs2)C(C(=O)OC)=C(C)N1` (configuration not stated), the cell number change was found to be 17.1%. For the same compound, the concentration at half-maximal activity (AC50) under setting [1] was 3.26 µM [rising, single point]. Moreover, the half-maximal activity concentration (AC50) under setting [2] was 29.1 µM [rising, single point].

Regarding `Cc1noc(NS(=O)(=O)c2ccc(NC(=O)c3ccc(Cl)c(S(=O)(=O)N(C)c4ccccc4)c3)cc2)c1C`, the cell number change was -18.5%. Further, under setting [1], the AC50 is 6.51 µM [falling, single point].

Turning to `CCn1c(CSc2nnc(-c3ccc4c(c3)OCO4)o2)nc2cc(S(=O)(=O)N(C)C)ccc21`, the cell number change is -6.41%. Besides, the AC50 under setting [2] was 0.58 µM [rising, partial curve].

Turning to `O=c1c2ccccc2ncn1CCCCOc1ccccc1F`, the cell number change was -5.28%.

As to `O=C(COc1ccc(Br)cc1)NCCCNC(=O)c1ccncc1`, the cell number change is 14.4%. Also, the AC50 under setting [2] was 35.5 µM [rising, partial curve, poor fit].

In the case of `Cc1ccc(OCCCC(=O)Nc2ccc(S(=O)(=O)N3CCOCC3)cc2)cc1`, the cell number change was -30%.

On to `O=C(Nc1cc2c(=O)n(-c3ccc(Oc4ccccc4)cc3)ccc2oc1=O)c1ccccc1`, for which the cell number change was found to be 32.9%. The AC50 under setting [1] is 2.31 µM [rising, partial curve, poor fit].

Turning to `Cc1ccc2nc(SCC(=O)Nc3cc(C(F)(F)F)ccc3N3CCOCC3)[nH]c2c1`, the cell number change is 8.03%. In addition, the half-maximal activity concentration (AC50) under setting [2] was 3.66 µM [rising, single point].

In the case of `CCc1nc(SCC(=O)Nc2cc(C)on2)c2c(C)c(C)sc2n1`, the cell number change stood at 9.33%. Further, under setting [2], the AC50 is 0.164 µM [rising, full curve, poor fit].

Values taken from PubChem BioAssay AID2685 (National Center for Advancing Translational Sciences (NCATS), 2010).
